Drawing on patent US20200131249A1, “NOVEL PROTEINS AND USE THEREOF” (EVOLVERITAS KFT., priority 2017, published 2020), this text covers binding for 1 substance.

Sequences of proteins named here, by UniProt entry; tags and fusion partners are left off. A change or cut given only in a name is not applied to a line headed by its entry. Residues count along the entry.
UniProt O00187, residues 287-686: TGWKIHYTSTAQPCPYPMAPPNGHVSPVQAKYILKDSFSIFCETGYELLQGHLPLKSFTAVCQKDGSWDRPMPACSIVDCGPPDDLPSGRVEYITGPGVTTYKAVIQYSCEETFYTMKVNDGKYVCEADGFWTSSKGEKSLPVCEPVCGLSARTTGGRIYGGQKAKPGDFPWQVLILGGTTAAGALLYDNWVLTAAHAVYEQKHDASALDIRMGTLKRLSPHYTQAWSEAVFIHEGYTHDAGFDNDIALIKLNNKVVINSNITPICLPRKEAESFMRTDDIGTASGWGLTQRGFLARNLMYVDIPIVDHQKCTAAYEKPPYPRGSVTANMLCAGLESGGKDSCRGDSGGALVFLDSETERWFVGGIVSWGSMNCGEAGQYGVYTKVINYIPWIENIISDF
UniProt P10646: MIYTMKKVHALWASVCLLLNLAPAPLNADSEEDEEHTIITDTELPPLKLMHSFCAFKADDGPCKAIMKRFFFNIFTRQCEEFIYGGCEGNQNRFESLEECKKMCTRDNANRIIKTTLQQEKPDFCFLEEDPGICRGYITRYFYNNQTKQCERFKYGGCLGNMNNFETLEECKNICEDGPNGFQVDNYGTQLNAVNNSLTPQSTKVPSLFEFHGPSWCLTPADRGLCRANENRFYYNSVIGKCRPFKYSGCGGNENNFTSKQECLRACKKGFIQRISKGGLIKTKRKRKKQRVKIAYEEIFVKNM

This assay addresses human MASP-2 catalytic fragment CCP1-CCP2-SP (human) (UniProt O00187). In words: enzyme inhibition.

Results are given in words; binding and its absence hold for the method and conditions named. Some entries that bind do so weakly or less than the wild type.

As for “TFPI-D2, second Kunitz domain (residues 121-178) of human Tissue Factor Pathway Inhibitor-1 (from UniProt P10646 121-178)”, the binding entry was “binds”.
